Experimental data as given in patent publication US20250099428A1, “USE OF BENZISOSELENAZOLE COMPOUND IN PREPERATION OF DRUG FOR TREATMENT OF SPINAGLIOMA” (Beijing Neurosurgical Institute, priority 2022, published 2025).
For at least one compound, name, drawing or mass did not settle the structure.

Test system: Spinaglioma cells SP0001
Experiment: CCK8 cell proliferation inhibition, spinaglioma cells SP0001
Assay type: cell-based, human
Conditions: CCK8, 24 and 48 hours
Procedure: Spinaglioma cells SP0001 in a logarithmic growth phase were digested with trypsin and centrifuged to obtain a cell precipitate, and cells were counted after being re-suspended in a complete medium. Based on the count results, the cells SP0001 were inoculated into a 96-well cell culture plate with 5000 cells per well and cultured in a 37° C. incubator in a 5% CO2 environment. After 24 hours, the cells were treated with drugs. Atemozolomide (TMZ) compound and a benzisoselenazole compound (BS) of the present invention were respectively dissolved in DMSO to prepare a stock solution, which was then dissolved with the complete medium to different drug concentrations. […]
[…] The well plate was taken out of the incubator, the cell medium was removed from the wells to be tested, 110 μL of CCK8 working solution was added to each well, the incubation was continued for 2 hours, then the absorbance at 450 nm was measured on an enzyme-linked immunosorbent assay (ELISA) reader, an inhibition rate corresponding to each concentration was calculated, and IC50 values at corresponding time were calculated using GraphPad 7.0 software.
This example measured the killing effects of a cytarabine compound and the BS compound of the present invention on two types of spinaglioma cell lines SCA-S01 and SP0001, using the same method as Example 1.

Cn1nnc2c(C(N)=O)ncn2c1=O [TMZ, temozolomide, reference compound]
sensitivity of patient-derived spinaglioma to the compound: not sensitive
